These are yes or no findings as the source states them, for the method shown. In cells and extracts the contact can be indirect. Some results given as binding are weak or reduced against the parent protein; the word gives no strength.
Biological target: T1, kinesin family member (KIF) 23 (human (endogenous in HEK-293T)) (UniProt Q02241)
T1 sequence: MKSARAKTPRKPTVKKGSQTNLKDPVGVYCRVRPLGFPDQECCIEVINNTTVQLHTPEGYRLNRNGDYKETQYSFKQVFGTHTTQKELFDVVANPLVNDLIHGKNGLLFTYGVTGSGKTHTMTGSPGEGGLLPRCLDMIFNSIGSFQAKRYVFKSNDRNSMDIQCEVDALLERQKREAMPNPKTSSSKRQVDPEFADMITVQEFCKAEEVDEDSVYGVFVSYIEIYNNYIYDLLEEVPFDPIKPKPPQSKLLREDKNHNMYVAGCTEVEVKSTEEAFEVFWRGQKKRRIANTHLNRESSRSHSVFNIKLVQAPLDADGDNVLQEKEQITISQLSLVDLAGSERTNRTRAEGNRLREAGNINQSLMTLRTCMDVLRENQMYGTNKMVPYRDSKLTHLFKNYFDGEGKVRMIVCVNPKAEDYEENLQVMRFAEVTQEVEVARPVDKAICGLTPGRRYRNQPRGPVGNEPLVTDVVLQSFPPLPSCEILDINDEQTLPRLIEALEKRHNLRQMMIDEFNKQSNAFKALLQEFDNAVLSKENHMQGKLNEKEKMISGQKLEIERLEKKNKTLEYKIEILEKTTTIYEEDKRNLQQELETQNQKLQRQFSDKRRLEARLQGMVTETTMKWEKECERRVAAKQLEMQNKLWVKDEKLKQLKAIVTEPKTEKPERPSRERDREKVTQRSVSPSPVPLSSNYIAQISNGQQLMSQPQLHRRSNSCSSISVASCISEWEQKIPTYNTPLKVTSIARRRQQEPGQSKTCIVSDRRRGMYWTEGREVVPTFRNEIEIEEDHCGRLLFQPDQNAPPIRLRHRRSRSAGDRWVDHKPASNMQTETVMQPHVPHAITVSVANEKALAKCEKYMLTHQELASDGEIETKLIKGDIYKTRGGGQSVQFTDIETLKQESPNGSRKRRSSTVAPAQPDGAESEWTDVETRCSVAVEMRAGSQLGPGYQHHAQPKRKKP
Experiment: co-IP; HEK-293T cells lysed on ice in RIPA buffer with protease inhibitors; KIF23, SIRT7 or IgG antibody (2 µg) overnight at 4 °C; protein A agarose beads 2 h at 4 °C; washed three times with lysis buffer; western blot

Sequences of proteins named here, by UniProt entry; tags and fusion partners are left off.
UniProt Q9NRC8: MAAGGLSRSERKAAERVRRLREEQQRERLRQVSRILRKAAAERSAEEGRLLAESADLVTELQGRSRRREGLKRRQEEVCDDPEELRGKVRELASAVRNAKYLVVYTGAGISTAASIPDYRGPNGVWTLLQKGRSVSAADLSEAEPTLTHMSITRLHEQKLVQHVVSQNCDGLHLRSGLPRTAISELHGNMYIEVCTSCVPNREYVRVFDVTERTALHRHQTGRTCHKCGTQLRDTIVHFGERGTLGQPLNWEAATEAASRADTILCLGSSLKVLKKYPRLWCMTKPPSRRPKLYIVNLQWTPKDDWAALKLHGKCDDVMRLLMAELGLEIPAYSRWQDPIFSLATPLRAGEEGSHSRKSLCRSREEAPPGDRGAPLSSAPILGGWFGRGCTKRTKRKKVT
UniProt Q92830: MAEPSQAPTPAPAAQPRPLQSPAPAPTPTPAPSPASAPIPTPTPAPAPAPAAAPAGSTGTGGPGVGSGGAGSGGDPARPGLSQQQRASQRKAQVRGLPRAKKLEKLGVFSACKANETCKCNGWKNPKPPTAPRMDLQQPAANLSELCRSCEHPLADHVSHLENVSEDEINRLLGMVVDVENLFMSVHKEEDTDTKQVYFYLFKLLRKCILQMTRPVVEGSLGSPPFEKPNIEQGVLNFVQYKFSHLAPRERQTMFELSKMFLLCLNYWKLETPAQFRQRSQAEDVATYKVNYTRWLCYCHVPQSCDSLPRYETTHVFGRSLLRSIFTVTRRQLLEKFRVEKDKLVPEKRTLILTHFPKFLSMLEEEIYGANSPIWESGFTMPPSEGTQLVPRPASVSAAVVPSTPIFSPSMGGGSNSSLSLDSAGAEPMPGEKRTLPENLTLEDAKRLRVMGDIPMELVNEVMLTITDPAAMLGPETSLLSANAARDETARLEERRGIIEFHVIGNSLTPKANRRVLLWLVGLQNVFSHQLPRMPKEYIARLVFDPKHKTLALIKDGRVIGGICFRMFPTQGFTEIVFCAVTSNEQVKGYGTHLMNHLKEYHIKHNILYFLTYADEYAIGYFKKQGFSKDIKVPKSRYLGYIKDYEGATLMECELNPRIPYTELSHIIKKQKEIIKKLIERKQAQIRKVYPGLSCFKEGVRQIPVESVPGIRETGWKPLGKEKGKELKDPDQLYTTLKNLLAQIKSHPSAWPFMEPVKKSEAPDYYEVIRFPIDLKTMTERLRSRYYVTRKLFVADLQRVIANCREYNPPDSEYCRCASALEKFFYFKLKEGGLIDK
UniProt Q09472: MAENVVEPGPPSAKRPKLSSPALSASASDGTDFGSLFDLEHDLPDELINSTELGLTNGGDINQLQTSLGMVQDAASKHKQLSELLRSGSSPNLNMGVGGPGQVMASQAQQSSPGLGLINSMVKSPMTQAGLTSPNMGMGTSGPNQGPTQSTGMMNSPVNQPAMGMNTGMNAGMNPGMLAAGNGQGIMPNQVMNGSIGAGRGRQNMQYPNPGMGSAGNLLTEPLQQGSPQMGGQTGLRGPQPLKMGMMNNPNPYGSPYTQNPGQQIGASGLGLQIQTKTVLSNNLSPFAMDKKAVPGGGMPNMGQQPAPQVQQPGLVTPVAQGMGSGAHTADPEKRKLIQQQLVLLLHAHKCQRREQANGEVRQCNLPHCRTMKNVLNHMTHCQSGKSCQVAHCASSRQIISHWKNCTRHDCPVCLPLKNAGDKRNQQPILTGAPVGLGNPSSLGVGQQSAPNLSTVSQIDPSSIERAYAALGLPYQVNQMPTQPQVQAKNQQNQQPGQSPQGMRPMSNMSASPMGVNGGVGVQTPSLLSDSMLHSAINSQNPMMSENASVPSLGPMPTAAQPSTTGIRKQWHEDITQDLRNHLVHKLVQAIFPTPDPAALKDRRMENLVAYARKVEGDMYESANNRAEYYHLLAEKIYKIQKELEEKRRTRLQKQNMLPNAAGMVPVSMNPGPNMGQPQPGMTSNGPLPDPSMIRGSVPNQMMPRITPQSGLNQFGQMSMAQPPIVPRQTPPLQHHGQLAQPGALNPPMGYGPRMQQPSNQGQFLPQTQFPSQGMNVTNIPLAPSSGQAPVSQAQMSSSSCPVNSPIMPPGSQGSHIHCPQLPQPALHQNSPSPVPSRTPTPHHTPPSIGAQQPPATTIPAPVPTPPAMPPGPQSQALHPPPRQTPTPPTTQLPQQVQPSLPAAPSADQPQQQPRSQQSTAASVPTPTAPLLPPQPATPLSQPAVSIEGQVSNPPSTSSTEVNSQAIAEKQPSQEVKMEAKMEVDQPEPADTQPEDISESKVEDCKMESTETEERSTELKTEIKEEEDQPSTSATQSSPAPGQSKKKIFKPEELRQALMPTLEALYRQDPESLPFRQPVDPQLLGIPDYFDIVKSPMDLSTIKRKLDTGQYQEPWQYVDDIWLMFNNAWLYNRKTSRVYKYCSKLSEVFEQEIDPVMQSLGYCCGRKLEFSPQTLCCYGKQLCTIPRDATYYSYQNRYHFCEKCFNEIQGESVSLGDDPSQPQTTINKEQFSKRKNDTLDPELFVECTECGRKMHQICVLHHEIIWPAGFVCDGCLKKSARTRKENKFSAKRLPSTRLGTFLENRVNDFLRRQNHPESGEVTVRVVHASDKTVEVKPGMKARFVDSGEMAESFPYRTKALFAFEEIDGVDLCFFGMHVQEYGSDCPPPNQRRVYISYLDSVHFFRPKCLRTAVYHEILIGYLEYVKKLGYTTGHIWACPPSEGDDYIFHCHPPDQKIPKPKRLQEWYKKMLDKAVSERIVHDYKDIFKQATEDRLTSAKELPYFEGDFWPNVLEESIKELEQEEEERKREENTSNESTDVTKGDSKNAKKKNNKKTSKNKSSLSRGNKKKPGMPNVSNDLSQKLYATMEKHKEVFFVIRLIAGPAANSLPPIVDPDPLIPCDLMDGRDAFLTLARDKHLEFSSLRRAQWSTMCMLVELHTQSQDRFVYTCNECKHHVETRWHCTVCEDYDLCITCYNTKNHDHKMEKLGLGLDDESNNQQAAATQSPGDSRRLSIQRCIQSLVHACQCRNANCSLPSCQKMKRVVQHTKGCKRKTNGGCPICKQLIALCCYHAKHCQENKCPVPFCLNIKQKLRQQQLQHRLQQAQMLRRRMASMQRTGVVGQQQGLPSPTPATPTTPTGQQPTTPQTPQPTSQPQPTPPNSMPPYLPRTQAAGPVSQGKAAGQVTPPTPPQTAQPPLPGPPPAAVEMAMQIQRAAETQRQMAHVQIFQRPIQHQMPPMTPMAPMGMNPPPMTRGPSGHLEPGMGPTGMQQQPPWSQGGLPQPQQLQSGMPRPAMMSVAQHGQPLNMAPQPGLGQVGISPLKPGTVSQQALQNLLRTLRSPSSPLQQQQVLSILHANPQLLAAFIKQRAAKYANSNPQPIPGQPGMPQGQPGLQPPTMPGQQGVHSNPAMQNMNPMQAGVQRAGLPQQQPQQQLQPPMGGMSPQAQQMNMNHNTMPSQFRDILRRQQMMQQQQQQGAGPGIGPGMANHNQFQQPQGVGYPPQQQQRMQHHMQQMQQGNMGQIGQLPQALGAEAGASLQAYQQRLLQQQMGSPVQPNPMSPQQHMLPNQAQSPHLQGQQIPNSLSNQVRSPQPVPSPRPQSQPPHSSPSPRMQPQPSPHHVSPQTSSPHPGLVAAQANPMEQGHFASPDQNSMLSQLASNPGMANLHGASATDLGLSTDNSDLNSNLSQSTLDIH

Substance | binding
sirtuin (SIRT) 7 (from UniProt Q9NRC8 1-400) (enzyme) | binds
lysine acetyltransferase (KAT) 2A (from UniProt Q92830 1-837) (enzyme) | no binding
lysine acetyltransferase (KAT) 3B (from UniProt Q09472 1-2414) (enzyme) | no binding

Reference: paper PMC10870498
